Results deposited as PubChem BioAssay AID1259331 (Drosophila RNAi Screening Center, 2017)
Assay: 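Fly transmembrane-protein genes that affect zinc toxicity in cultured cells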 (primary screen). Cells: Drosophila S2R+ cells. Knock-down reagent: long dsRNA against Drosophila genes. Duration: 5 days (4 days knock-down, then 1 day zinc). Challenge: zinc chloride at 15 mM final level for 1 day. Measurement: 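Total cellular ATP measured by luciferase luminescence as a viability proxy, turned into Z scores from three plate copies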. Direction: mean Z score: higher = more ATP than other wells, better survival under zinc; ATP luminescence: higher = more ATP, more viable cells. Call rule: 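a reagent is called a hit when its Z score is above 1.5 or below -1.5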. Meaning of the calls: active = hit, ATP up or down; inactive = not a hit.
Here is an unselected part of about 3,100 reagents tested. 126 of them (4.1%) were called active. 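Calls are per reagent; zinc was so toxic that few knock-downs lowered ATP further, so most hits raise ATP.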 The raw values are shown without normalisation. Entries without a mark were called inactive. The numbers tell different reagents against one gene apart. A plus sign joins genes that one reagent is predicted to hit. The record does not give: the amount of reagent.

target gene | dsRNA no. | mean Z score | ATP luminescence, replicate 1 | ATP luminescence, replicate 2
ldd (lipid droplet defective) | 1 | -0.337 | 38239 | 38942
ldd (lipid droplet defective) | 2 | -0.445 | 41959 | 45148
CG10073 | 1 | -0.0499 | 64830 | 64865
Gr93c (Gustatory receptor 93c) | 1 | -0.125 | 40622 | 56173
CG31792 | 1 | -0.291 | 44288 | 37947
CG31792 | 2 | -0.125 | 58664 | 62210
Ir75b (Ionotropic receptor 75b) | 1 | 0.655 | 86513 | 71179
nAChRalpha5 (nicotinic Acetylcholine Receptor alpha5) | 1 | 0.396 | 55813 | 43674
CG9706 | 1 | -0.251 | 27302 | 32924
CG9706 | 2 | 1.46 | 75261 | 78537
ATPsynC (ATP synthase, subunit C) | 1 | 0.636 | 51784 | 55806
ATPsynC (ATP synthase, subunit C) | 2 | 0.781 | 58917 | 61970
OtopLc (Otopetrin-like c) | 1 | -0.601 | 56002 | 56156
OtopLc (Otopetrin-like c) | 2 | -0.124 | 60649 | 58300
TM9SF2 (Transmembrane 9 superfamily protein member 2) | 1 | -0.281 | 50601 | 54013
TM9SF2 (Transmembrane 9 superfamily protein member 2) | 2 | -0.053 | 47302 | 48835
mthl7 (methuselah-like 7) | 1 | 0.0174 | 77388 | 64778
mthl7 (methuselah-like 7) | 2 | 0.286 | 57082 | 65297
Ir52a (Ionotropic receptor 52a) | 1 | 0.344 | 70133 | 80012
Elo68alpha (Elongase 68alpha) | 1 | -0.156 | 46143 | 39045
ppk10 (pickpocket 10) | 1 | 0.0917 | 42714 | 46177
sev (sevenless) | 1 | -0.355 | 66753 | 53447
sev (sevenless) | 2 | -0.144 | 44462 | 46159
sev (sevenless) | 3 | 0.705 | 66736 | 50566
Tim23 (Translocase of inner mitochondrial membrane 23) | 1 | 3.39 (active) | 63959 | 1.04e5
CG15614 | 1 | -0.157 | 65794 | 68915
CG32246 | 1 | 0.268 | 43382 | 46074
CG32246 | 2 | -0.39 | 52064 | 58763
FMRFaR (FMRFamide Receptor) | 1 | -0.232 | 69310 | 66788
CG12974 | 1 | -0.287 | 67234 | 58025
CG12974 | 2 | -0.216 | 60581 | 58488
CG1208 | 1 | -0.486 | 39508 | 43214
CG1208 | 2 | -0.344 | 47257 | 42731
Acp95EF + Spase22-23 | 1 | -0.162 | 34879 | 55488
Prestin | 1 | -0.291 | 71136 | 56379
Kr-h2 (Kruppel homolog 2) | 1 | -0.223 | 42314 | 33430
Kr-h2 (Kruppel homolog 2) | 2 | -0.261 | 57923 | 53086
CG12990 | 1 | 0.294 | 46057 | 46072
CG3285 | 1 | -0.198 | 49795 | 57278
CG6763 | 1 | -0.306 | 35839 | 50515
CG6763 | 2 | 1.53 (active) | 84598 | 89721
18w (18 wheeler) | 1 | 0.271 | 53018 | 78343
Gr85a (Gustatory receptor 85a) | 1 | -0.0147 | 35496 | 58094
Gr85a (Gustatory receptor 85a) | 2 | -0.695 | 53381 | 44325
CG13893 | 1 | 0.53 | 85982 | 78534
CG13893 | 2 | 0.199 | 55590 | 62673
PIG-T (Phosphatidylinositol glycan anchor biosynthesis class T) | 1 | -0.28 | 58557 | 64319
PIG-T (Phosphatidylinositol glycan anchor biosynthesis class T) | 2 | 0.19 | 58574 | 59260
Mct1 (Monocarboxylate transporter 1) | 1 | -0.48 | 59534 | 56620
Mct1 (Monocarboxylate transporter 1) | 2 | -0.0358 | 59363 | 62347
sax (saxophone) | 1 | -0.193 | 32045 | 29822
sax (saxophone) | 2 | -0.825 | 43811 | 55927
sax (saxophone) | 3 | 0.214 | 48286 | 51943
CG4991 | 1 | -0.565 | 37502 | 40056
CG4991 | 2 | -0.569 | 48560 | 52607
Gr66a (Gustatory receptor 66a) | 1 | -0.0448 | 76324 | 60586
Gr66a (Gustatory receptor 66a) | 2 | -0.159 | 56962 | 55042
CG11601 | 1 | -0.259 | 42885 | 42405
CG11601 | 2 | 0.0802 | 56311 | 60135
Tsp42Eg (Tetraspanin 42Eg) | 1 | 0.0472 | 33387 | 31159
CG14743 | 1 | -0.518 | 67149 | 61661
CG14743 | 2 | 0.659 | 72791 | 66394
cac (cacophony) | 1 | -0.0643 | 39936 | 47839
cac (cacophony) | 2 | -0.038 | 43828 | 48185
Gr93d (Gustatory receptor 93d) | 1 | 0.00884 | 49418 | 47892
Flo1 (Flotillin 1) | 1 | -0.326 | 27335 | 29933
Flo1 (Flotillin 1) | 2 | -0.0483 | 55453 | 55413
CG6660 | 1 | -0.00119 | 44548 | 47926

Sorted by “ATP luminescence, replicate 1” (lowest first): 4 of the entries above.
target gene | dsRNA no. | mean Z score | ATP luminescence, replicate 1 | ATP luminescence, replicate 2
CG4991 | 1 | -0.565 | 37502 | 40056
sax (saxophone) | 3 | 0.214 | 48286 | 51943
CG4991 | 2 | -0.569 | 48560 | 52607
Gr66a (Gustatory receptor 66a) | 1 | -0.0448 | 76324 | 60586
